Experimental data published in the supplement of paper PMC8728848.
Some of the results follow.

What was measured:
Test in all cases: glycan array binding signal (z-score within array); higher = stronger binding
Details in all cases: glycan notation: IUPAC condensed, linker removed
[1] = biological target: Neu5Ac(a2-6)Gal(b1-4)GlcNAc(b1-2)Man(a1-6)[Gal(b1-4)GlcNAc(b1-2)Man(a1-3)]Man(b1-4)GlcNAc(b1-4)GlcNAc
Method in brief: (§1)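 The binding signal is a Z-score computed within each array and averaged over linkers. Arrays of the same protein sequence at different concentrations or buffers were also averaged together. Data originate from 3228 arrays in the Consortium for Functional Glycomics database, kept only where the protein sequence was available.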

[2] = biological target: Neu5Ac(a2-6)Gal(b1-4)GlcNAc(b1-2)Man(a1-6)[GlcNAc(b1-2)Man(a1-3)]Man(b1-4)GlcNAc(b1-4)GlcNAc
Method in brief: as §1

[3] = biological target: Neu5Ac(a2-6)Gal(b1-4)GlcNAc(b1-2)Man(a1-6)[Man(a1-3)]Man(b1-4)GlcNAc(b1-4)GlcNAc
Method in brief: as §1

[4] = biological target: Neu5Ac(a2-6)Gal(b1-4)GlcNAc(b1-3)Gal(b1-3)GlcNAc
Method in brief: as §1

[5] = biological target: Neu5Ac(a2-6)Gal(b1-4)GlcNAc(b1-3)Gal(b1-4)GlcNAc
Method in brief: as §1

[6] = biological target: Neu5Ac(a2-6)Gal(b1-4)GlcNAc(b1-3)Gal(b1-4)GlcNAc(b1-3)Gal(b1-4)GlcNAc
Method in brief: as §1

[7] = biological target: Neu5Ac(a2-6)Gal(b1-4)GlcNAc(b1-3)Gal(b1-4)[Fuc(a1-3)]GlcNAc(b1-3)Gal(b1-4)[Fuc(a1-3)]GlcNAc
Method in brief: as §1

[8] = biological target: Neu5Ac(a2-6)Gal(b1-4)GlcNAc(b1-3)GalNAc
Method in brief: as §1

[9] = biological target: Neu5Ac(a2-6)Gal(b1-4)GlcNAc6S
Method in brief: as §1

Neu5Ac(a2-6)GalNAc = biological target: Neu5Ac(a2-6)GalNAc
Method in brief: as §1

[10] = biological target: Neu5Ac(a2-6)GalNAc(b1-4)GlcNAc
Method in brief: as §1

[11] = biological target: Neu5Ac(a2-6)GlcNAc(b1-4)GlcNAc
Method in brief: as §1

[12] = biological target: Neu5Ac(a2-6)GlcNAc(b1-4)GlcNAc(b1-4)GlcNAc
Method in brief: as §1

Neu5Ac(a2-8)Neu5Ac = biological target: Neu5Ac(a2-8)Neu5Ac
Method in brief: as §1

[13] = biological target: Neu5Ac(a2-8)Neu5Ac(a2-3)Gal(b1-3)GalNAc(b1-4)[Neu5Ac(a2-8)Neu5Ac(a2-3)]Gal(b1-4)Glc
Method in brief: as §1

[14] = biological target: Neu5Ac(a2-8)Neu5Ac(a2-3)Gal(b1-4)Glc
Method in brief: as §1

[15] = biological target: Neu5Ac(a2-8)Neu5Ac(a2-3)[Gal(b1-3)GalNAc(b1-4)]Gal(b1-4)Glc
Method in brief: as §1

[16] = biological target: Neu5Ac(a2-8)Neu5Ac(a2-3)[GalNAc(b1-4)]Gal(b1-4)Glc
Method in brief: as §1

[17] = biological target: Neu5Ac(a2-8)Neu5Ac(a2-8)Neu5Ac
Method in brief: as §1

[18] = biological target: Neu5Ac(a2-8)Neu5Ac(a2-8)Neu5Ac(a2-3)Gal(b1-4)Glc
Method in brief: as §1

[19] = biological target: Neu5Ac(a2-8)Neu5Ac(a2-8)Neu5Ac(a2-3)[GalNAc(b1-4)]Gal(b1-4)Glc
Method in brief: as §1

[20] = biological target: Neu5Ac(a2-8)Neu5Ac(a2-8)Neu5Ac(a2-8)Neu5Ac(a2-3)[GalNAc(b1-4)]Gal(b1-4)Glc
Method in brief: as §1

[21] = biological target: Neu5Ac(b2-6)Gal(b1-4)GlcNAc
Method in brief: as §1

Neu5Ac(b2-6)GalNAc = biological target: Neu5Ac(b2-6)GalNAc
Method in brief: as §1

[22] = biological target: Neu5Ac9Ac(a2-3)Gal(b1-3)GlcNAc
Method in brief: as §1

[23] = biological target: Neu5Ac9Ac(a2-3)Gal(b1-4)GlcNAc
Method in brief: as §1

[24] = biological target: Neu5Ac9Ac(a2-6)Gal(b1-4)GlcNAc
Method in brief: as §1

[25] = biological target: Neu5Gc(a2-3)Gal(b1-3)GlcNAc
Method in brief: as §1

[26] = biological target: Neu5Gc(a2-3)Gal(b1-3)[Fuc(a1-4)]GlcNAc
Method in brief: as §1

Neu5Gc(a2-3)Gal(b1-4)Glc = biological target: Neu5Gc(a2-3)Gal(b1-4)Glc
Method in brief: as §1

[27] = biological target: Neu5Gc(a2-3)Gal(b1-4)GlcNAc
Method in brief: as §1

[28] = biological target: Neu5Gc(a2-3)Gal(b1-4)[Fuc(a1-3)]GlcNAc
Method in brief: as §1

[29] = biological target: Neu5Gc(a2-6)Gal(b1-4)GlcNAc
Method in brief: as §1

Neu5Gc(a2-6)GalNAc = biological target: Neu5Gc(a2-6)GalNAc
Method in brief: as §1

[30] = biological target: Neu5Gc(b2-6)Gal(b1-4)GlcNAc
Method in brief: as §1

B1: Protectin (Homo sapiens), P13987 (protein)
chain: MGIQGGSVLFGLLLVLAVFCHSGHSLQCYNCPNPTADCKTAVNCSSDFDACLITKAGLQVYNKCWKFEHCNFNDVTTRLRENELTYYCCKKDLCNFNEQLENGGTSLSEKTVLLLVTPFLAAAWSLHP
- glycan array binding signal (z-score) [1]: -0.207
- glycan array binding signal (z-score) [2]: 1.22
- glycan array binding signal (z-score) [3]: -0.072
- glycan array binding signal (z-score) [4]: -0.84
- glycan array binding signal (z-score) [5]: -1.61
- glycan array binding signal (z-score) [6]: -0.179
- glycan array binding signal (z-score) [7]: 1.68
- glycan array binding signal (z-score) [8]: -0.264
- glycan array binding signal (z-score) [9]: 0.066
- glycan array binding signal (z-score) (Neu5Ac(a2-6)GalNAc): -0.755
- glycan array binding signal (z-score) [10]: -0.801
- glycan array binding signal (z-score) [11]: -0.361
- glycan array binding signal (z-score) [12]: -0.128
- glycan array binding signal (z-score) (Neu5Ac(a2-8)Neu5Ac): -0.427
- glycan array binding signal (z-score) [13]: 0.663
- glycan array binding signal (z-score) [14]: -0.849
- glycan array binding signal (z-score) [15]: 0.705
- glycan array binding signal (z-score) [16]: 1.28
- glycan array binding signal (z-score) [17]: -0.999
- glycan array binding signal (z-score) [18]: -1.18
- glycan array binding signal (z-score) [19]: -0.316
- glycan array binding signal (z-score) [20]: -1.37
- glycan array binding signal (z-score) [21]: -0.059
- glycan array binding signal (z-score) (Neu5Ac(b2-6)GalNAc): -1.58
- glycan array binding signal (z-score) [22]: 0.94
- glycan array binding signal (z-score) [23]: -1.07
- glycan array binding signal (z-score) [24]: -0.346
- glycan array binding signal (z-score) [25]: 1.16
- glycan array binding signal (z-score) [26]: 0.087
- glycan array binding signal (z-score) (Neu5Gc(a2-3)Gal(b1-4)Glc): 2.04
- glycan array binding signal (z-score) [27]: -1.34
- glycan array binding signal (z-score) [28]: 0.769
- glycan array binding signal (z-score) [29]: 0.675
- glycan array binding signal (z-score) (Neu5Gc(a2-6)GalNAc): 0.341
- glycan array binding signal (z-score) [30]: -0.488
